Assay results from PubChem BioAssay AID504467 (National Center for Advancing Translational Sciences (NCATS), 2011).
The campaign covered roughly 330,000 compounds. About 7,700 (2.3%) were called active. The shares of active, inactive and inconclusive entries below differ from those in the screen. Calls follow the shape of the dose curve; as a rule, active = well fitted inhibition curve with a large enough effect; inconclusive = small, poorly fitted or top-dose-only effect, or effect the other way; inactive = flat fitted curve, though single readings scatter. Potencies beside an inconclusive call are fits to weak or partial responses and may not hold up.

experiment: qHTS screen for small molecules that inhibit ELG1-dependent DNA repair in human embryonic kidney (HEK293T) cells expressing luciferase-tagged ELG1; details: HEK293T ELG1-luciferase reporter, luminescence, 16 h, DNA damage induced by 5-fluorouridine; series mostly up to 46.1 µM; also: nearly all actives have a fitted effect of over 55% in size
Summary of the method: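 5-Fluorouridine DNA damage + compound/DMSO, 2,000 cells/well, 16 h, 37 °C/5% CO2. ONE-Glo, 30 min RT, luminescence. Readout = decrease in reporter signal.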
Potency is read from the fitted curve at half-maximal effect.

| Structure (SMILES) | Potency |
| --- | --- |
| CCN(Cc1nc2cc(Cl)ccc2c(=O)[nH]1)C(=O)c1nn(C)c(=O)c2ccccc12 | inconclusive: 20.6 µM [inhibitor, partial curve, poor fit] |
| C=CCOc1ccc2ccccc2c1CNn1c(C)n[nH]c1=S | inconclusive: 23.1 µM [inhibitor, single point] |
| O=c1c2cc(N3CCOCC3)ccc2[nH]c(=S)n1CCCN1CCCC1 | inconclusive: 3.26 µM [inhibitor, partial curve, poor fit] |
| COCCNC(=S)N1CCc2cc(OC)c(OC)cc2C1COc1ccc(C(C)C)cc1 (stereo not given) | active: 9.2 µM |
| O=C(c1cnn(C(=O)CN2CCCC2=O)c1)c1ccccc1O | inactive |
| COc1ccccc1NS(=O)(=O)c1cc(NC(=O)c2ccncc2)ccc1N1CCOCC1 | inactive |
| COc1ccc(C)cc1NC(=O)CSc1nnc2ccc(-c3cccnc3)nn12 | inactive |
| CN(CC(=O)Nc1ccccc1Cl)C(=O)COC(=O)c1ccc(-c2ccc(O)cc2)cc1 | inconclusive: 25.9 µM [activator, single point] |
| CCOCCn1c(CN2CCN(C)CC2)nc2c1c(=O)n(C)c(=O)n2C | inactive |
| COc1ccc(NC(=S)N2CCN(Cc3ccccc3)CC2)c(OC)c1 | inactive |
| Nc1c(C(=O)c2ccccc2)oc2ccc(Br)cc12 | inconclusive: 18.4 µM [activator, partial curve] |
| CC(=O)c1c(C)[nH]c(C(=O)N2CC(C)CC(C)C2)c1C (stereo not given) | inactive |
| COc1cccc(NC(=O)COC(=O)c2sccc2C)c1 | inconclusive: 14.6 µM [activator, partial curve] |
| CCOC(=O)c1cnc2ccc(C)cc2c1NCCN1CCOCC1 | inconclusive: 25.9 µM [inhibitor, partial curve, poor fit] |
| O=C(COc1ccccc1)Nc1ccccc1N1CCCCC1 | inactive |
| COc1ccc(-c2nnc(NC(=O)c3ccc(S(=O)(=O)N4CCc5ccccc5C4)cc3)o2)cc1 | inconclusive: 5.17 µM [inhibitor, full curve, poor fit] |
| N=C(c1ccc([N+](=O)[O-])cc1)N1CCCCC1 | inactive |
| CCCCCc1c(C)nc(NCc2ccccc2)[nH]c1=O | inconclusive: 4.61 µM [inhibitor, full curve, poor fit] |
| Cc1ccc(NC(=O)NC2=N/C(=C(/C#N)C(=O)N3CCCC3)c3ccccc32)cc1 | inconclusive: 18.4 µM [inhibitor, single point] |
| COc1cccc(C(=O)C2CCCN(Cc3cccn3-c3cccnc3)C2)c1 (stereo not given) | inconclusive: 29.1 µM [inhibitor, single point] |

2 records picked at random from the list so far, as already listed:

| Structure (SMILES) | Potency |
| --- | --- |
| O=c1c2cc(N3CCOCC3)ccc2[nH]c(=S)n1CCCN1CCCC1 | inconclusive: 3.26 µM [inhibitor, partial curve, poor fit] |
| CCOC(=O)c1cnc2ccc(C)cc2c1NCCN1CCOCC1 | inconclusive: 25.9 µM [inhibitor, partial curve, poor fit] |
